Data: patent publication US8486374B2, “Hydrophilic, non-aqueous pharmaceutical carriers and compositions and uses” (Foamix Ltd., priority 2004, dated 2013)
Entries after “also recorded” stand apart in the source; their conditions may differ. At least one structure is not confirmed: it was looked up by name or label, or the drawing left a doubt.

Key:
[1] = Foam appearance (color, odor, form); assay type: physicochemical; parameters: key to ODOR: No odor (N.O.); key to COLOR: white (W)
[2] = Shakability of the composition; assay type: physicochemical
Description: ‘Shakability’ means that the composition contains some or sufficient flow to allow the composition to be mixed or remixed on shaking. That is, it has fluid or semi fluid properties. A breakable foam is that is thermally stable, yet breaks under sheer force.
‘Shakability’ means that the composition contains some or sufficient flow to allow the composition to be mixed or remixed on shaking. That is, it has fluid or semi fluid properties. In some very limited cases it may still be possible to have a foamable composition which is flowable but not apparently shakable.

[3] = anti-inflammatory steroids at typical concentration in topical products (triamcinolone acetonide 0.025%-0.1% medium, 0.5% high); cited from earlier work
[4] = active agent in stock of PEG-400 97.5, hydroxypropyl cellulose 0.5, steareth 2 2.0 (first Example 29)
[5] = active agent in stock of propylene glycol 91, stearyl alcohol 2, Klucel EF 2, laureth-4 2, glyceryl monostearate/PEG 100 stearate 3 (second Example 29)

| SMILES | COLOR [1, 4] | ODOR [1, 4] | COLOR [1, 5] | ODOR [1, 5] | SHAKABILITY [2, 4] | SHAKABILITY [2, 5] | Relative Potency [3] |
| --- | --- | --- | --- | --- | --- | --- | --- |
| Nc1cc(N2CCCCC2)nc(N)[n+]1[O-] [Minoxidil] | W | N.O | W | N.O | Yes | Yes | – |
| CC1(C)O[C@@H]2C[C@H]3[C@@H]4CCC5=CC(=O)C=C[C@]5(C)[C@@]4(F)[C@@H](O)C[C@]3(C)[C@]2(C(=O)CO)O1 [Triamcinolone acetonide] | – | – | – | – | – | – | High Potency; also recorded: Medium Potency |
